Measured values from patent US20250195463A1 (FACULDADE DE CIÊNCIAS DA UNIVERSIDADE DE LISBOA, priority 2022, published 2025).

Tests used:
[1] = general procedure: Fmoc solid-phase peptide synthesis; rink-amide 4-methylbenzhydrylamine resin (100-200 mesh, 0.78 mmol/g loading); settings: conjugation step, RP-HPLC
[2] = general procedure: Fmoc solid-phase peptide synthesis; rink-amide MBHA; settings: whole synthesis, RP-HPLC, scale 0.3 mmol

[Ru(CpCON2HCCH3C2H4CONH-VSPPLTLGQLLS)(PPh)(bipy)][CF3SO3]
final HPLC purity [1]: 97%

VSPPLTLGQLLS
final HPLC purity [2]: >97%

CH3COC2H4CONH-VSPPLTLGQLLS
final HPLC purity [2]: >97%

[Ru(CpCCH3N2HCOC2H4CONH-VSPPLTLGQLLS)(PPh3)(phen)][CF3SO3]
final HPLC purity [1]: >97%

N2H3COC2H4CONH-VSPPLTLGQLLS
final HPLC purity [2]: ≥97%

[Ru(CpCCH3N2HCOC2H4CONH-VSPPLTLGQLLS)(PPh)(bipy)][CF3SO3]
final HPLC purity [1]: >97%

N2H3CO(C2H4CO)2OCONH-VSPPLTLGQLLS
final HPLC purity [2]: 97%

For some of these results: Where a sequence shows no end group, the ends are not given.
